Measured data: PubChem BioAssay AID686943 (Drosophila RNAi Screening Center, 2013)

Screen: 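Fly genes whose loss alters ERK activation after insulin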 (primary screen)
System: Drosophila S2R+ haemocyte-like cells expressing YFP-tagged ERK (Rolled)
Reagent: long dsRNA against Drosophila genes
Challenge: insulin stimulation versus unstimulated cells; dose and duration not given
Measurement: 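Per-plate z-scores of phospho-ERK immunostaining normalised to YFP-tagged ERK, measured with and without insulin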
Reading the numbers: replicate 1, z-score of dpERK with insulin: higher = more active ERK per ERK-YFP after insulin
In all, the deposit lists about 23,000 reagents; this is an unselected part of those with a known target gene and a result. 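Extra replicates exist only for a retested subset of genes; insulin dose and duration not given; both raised and lowered dpERK matter.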 A plus sign joins genes that one reagent is predicted to hit. Further read-outs or replicates are left out here. Not stated in the record: the amount of reagent, the time to read-out.

CG31301 [DRSC22164]
- replicate 1, z-score of dpERK with insulin: 0.09

drn + CG43675 [DRSC15147]
- replicate 1, z-score of dpERK with insulin: -0.56

dx [DRSC18767]
- replicate 1, z-score of dpERK with insulin: -0.85

fz4 [DRSC18780]
- replicate 1, z-score of dpERK with insulin: 0.25

CG15478 [DRSC18057]
- replicate 1, z-score of dpERK with insulin: 0.01

BuGZ [DRSC02642]
- replicate 1, z-score of dpERK with insulin: -1.32

BuGZ [DRSC02643]
- replicate 1, z-score of dpERK with insulin: -0.1

stmA [DRSC05120]
- replicate 1, z-score of dpERK with insulin: -0.17

stmA [DRSC07593]
- replicate 1, z-score of dpERK with insulin: -0.76

stmA [DRSC22179]
- replicate 1, z-score of dpERK with insulin: -0.19

CG33937 (retired record) [DRSC15148]
- replicate 1, z-score of dpERK with insulin: 0.62

sn [DRSC18834]
- replicate 1, z-score of dpERK with insulin: 0.24

dpr11 [DRSC12561]
- replicate 1, z-score of dpERK with insulin: 0.03

dpr11 [DRSC12562]
- replicate 1, z-score of dpERK with insulin: -0.23

dpr11 [DRSC12563]
- replicate 1, z-score of dpERK with insulin: 0.32

Hey [DRSC07440]
- replicate 1, z-score of dpERK with insulin: -4.23

meng [DRSC02134]
- replicate 1, z-score of dpERK with insulin: 0.1

CG14339 [DRSC00369]
- replicate 1, z-score of dpERK with insulin: -0.92

Tsp3A [DRSC18656]
- replicate 1, z-score of dpERK with insulin: 0.21

Cpr66D [DRSC10640]
- replicate 1, z-score of dpERK with insulin: -0.74

Cpr66D [DRSC10646]
- replicate 1, z-score of dpERK with insulin: -0.59

PGRP-SC2 [DRSC06481]
- replicate 1, z-score of dpERK with insulin: 0.45

Myd88 [DRSC06815]
- replicate 1, z-score of dpERK with insulin: -0.52

Ttc30 [DRSC02818]
- replicate 1, z-score of dpERK with insulin: 0.11

Sans [DRSC06357]
- replicate 1, z-score of dpERK with insulin: -0.52

CG31638 [DRSC02269]
- replicate 1, z-score of dpERK with insulin: -2.28

CG31638 [DRSC03259]
- replicate 1, z-score of dpERK with insulin: 0.21

Pxd [DRSC16805]
- replicate 1, z-score of dpERK with insulin: 0.19

Ctl1 [DRSC08303]
- replicate 1, z-score of dpERK with insulin: 0.02

schlank [DRSC18102]
- replicate 1, z-score of dpERK with insulin: 1.14

schlank [DRSC18313]
- replicate 1, z-score of dpERK with insulin: 0.79

As entered above:
CG31638 [DRSC03259], replicate 1, z-score of dpERK with insulin → 0.21
Value of dpr11 [DRSC12562] under “replicate 1, z-score of dpERK with insulin”: -0.23
Tsp3A [DRSC18656], replicate 1, z-score of dpERK with insulin → 0.21
CG15478 [DRSC18057], replicate 1, z-score of dpERK with insulin: 0.01
